Reference: paper PMC7819943, “Rice protein-binding microarrays: a tool to detect cis-acting elements near promoter regions in rice”
The other results are listed elsewhere or left out.

Each sequence was assayed against T1, OsSMF1 (Oryza sativa, UniProt Q6ZLB0 1-436) (assay: protein-binding microarray (RPBM); PBS, 2% BSA, 51.3 ng/ul salmon testes DNA, 50 uM zinc acetate, 200 nM TF, 25 C, 1 h; high values mean tight binding). Settings: protein: recombinant; tags: N-terminal polyhistidine and DsRed monomer fusion (pET32a); chain copies: 2; label: CyDye5-dUTP incorporated in the synthesized complementary strand; 3' TTTTT single-stranded linker to array surface; dsDNA, one strand shown.
T1 sequence: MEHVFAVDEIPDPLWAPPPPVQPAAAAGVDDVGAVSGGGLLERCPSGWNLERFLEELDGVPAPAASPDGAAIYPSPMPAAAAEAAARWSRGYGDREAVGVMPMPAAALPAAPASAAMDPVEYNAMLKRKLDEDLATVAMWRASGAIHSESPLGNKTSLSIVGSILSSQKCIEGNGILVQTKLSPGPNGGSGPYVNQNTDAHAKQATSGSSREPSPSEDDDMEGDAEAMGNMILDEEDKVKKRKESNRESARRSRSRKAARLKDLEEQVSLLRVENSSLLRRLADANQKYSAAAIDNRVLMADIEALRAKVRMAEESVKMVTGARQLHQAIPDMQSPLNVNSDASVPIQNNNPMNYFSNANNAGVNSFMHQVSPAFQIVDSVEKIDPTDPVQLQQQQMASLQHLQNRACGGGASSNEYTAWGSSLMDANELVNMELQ
In short: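 An Axon 4000B scanner gave the binding signal as per-feature fluorescence intensity in arbitrary units. This followed washing of a custom Agilent array that had been incubated for 1 h at 25 °C with 200 nM protein in PBS, 2% BSA, salmon testes DNA and 50 µM zinc acetate. The proteins were transcription factors fused at the N-terminus to polyhistidine and DsRed, expressed in E. coli BL21-CodonPlus and purified on Ni–NTA.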

| Sequence | binding signal |
| --- | --- |
| CCGCTTCGTTCCACGCCGCCGCGCCTTCCTCCCTCCTCCGCGGAGTCACCTAGTGCAG | 3250 fluorescence intensity (a.u.) |
| CGCCGCTCCTCCTCATCATCCTGCCACCGTGGTGAAGCGGCGGAGTCACCTAGTGCAG | 4080 fluorescence intensity (a.u.) |
| GAAGCAGACAGGAATAGCTGCCATCCTGTCATAACTTGTACGGAGTCACCTAGTGCAG | 3250 fluorescence intensity (a.u.) |
| TGGCCAGGGCCCAGGTGGGAGGCCGTGACGGCGGTAGCAGCGGAGTCACCTAGTGCAG | 3480 fluorescence intensity (a.u.) |
| CTCCGCCGCTGGCCGCCTTGCCTGCTTGAGAGGAGGAGAGCGGAGTCACCTAGTGCAG | 26800 fluorescence intensity (a.u.) |
| CTAGCCAGACAACGAGGCGGATTCGCCGGCCGCCGCGTCGCGGAGTCACCTAGTGCAG | 8920 fluorescence intensity (a.u.) |
| CGGACGTCCCACACGCTTGGTGTCACGACGAGAGGAACCTCGGAGTCACCTAGTGCAG | 3450 fluorescence intensity (a.u.) |
| GCTGGAACTCGCCGGAGCTGGTCATCACGTACCGCGTCGGCGGAGTCACCTAGTGCAG | 4030 fluorescence intensity (a.u.) |
| GCGGCAACCACGCCCTCCCCTCCGCCAGATCCGGCGGGAGCGGAGTCACCTAGTGCAG | 3840 fluorescence intensity (a.u.) |
| CTCCAGATCATTTTGTGGGATTCATAGGTTTGGACCCTCACGGAGTCACCTAGTGCAG | 3160 fluorescence intensity (a.u.) |
| AGGGATAGATTGGCTTAGGGGCGGGTGGGTCTAGAGATTTCGGAGTCACCTAGTGCAG | 3740 fluorescence intensity (a.u.) |
| GTCTTTCTGGTCAGAATTGGCTGGAAACAATTGTTGTTAGCGGAGTCACCTAGTGCAG | 3270 fluorescence intensity (a.u.) |
| TTTCGTGAGTCACCGCCGACCTCACCCGCGATTTGCCGCCCGGAGTCACCTAGTGCAG | 9380 fluorescence intensity (a.u.) |
| AATTAAGATGCACAGATAAAATTAACCGTAATTTTATACCCGGAGTCACCTAGTGCAG | 24300 fluorescence intensity (a.u.) |
| GGGTGCACACTGCACACGTGGAAACTGCACATAGAAGAATCGGAGTCACCTAGTGCAG | 3620 fluorescence intensity (a.u.) |
| GTCGGTACACCACGACAGTGCACGAATGGTGGGAAGCGACCGGAGTCACCTAGTGCAG | 27900 fluorescence intensity (a.u.) |
| CGAGGCAGTGCTCCCTTCCCCTTCCTCCCTCCCCACTCCCCGGAGTCACCTAGTGCAG | 28600 fluorescence intensity (a.u.) |
| TACTCCTCTTTCCACTTGGCACTTGGCAGGTGACCTGGCGCGGAGTCACCTAGTGCAG | 8250 fluorescence intensity (a.u.) |
| ATGCCATGCCAACGCACTATGCCTGGTATCCTTAGCCATCCGGAGTCACCTAGTGCAG | 4060 fluorescence intensity (a.u.) |
| GGTTAAATGTCTCGGTGTCATCTAACCCTATGGGAGTATTCGGAGTCACCTAGTGCAG | 3920 fluorescence intensity (a.u.) |
| TAGATGGATCATGGAGTGACGTGGATTATTTCATCCAGCTCGGAGTCACCTAGTGCAG | 16300 fluorescence intensity (a.u.) |

Part of the list above, field by field.
CGCCGCTCCTCCTCATCATCCTGCCACCGTGGTGAAGCGGCGGAGTCACCTAGTGCAG
  binding signal: 4080 fluorescence intensity (a.u.)
GAAGCAGACAGGAATAGCTGCCATCCTGTCATAACTTGTACGGAGTCACCTAGTGCAG
  binding signal: 3250 fluorescence intensity (a.u.)
TGGCCAGGGCCCAGGTGGGAGGCCGTGACGGCGGTAGCAGCGGAGTCACCTAGTGCAG
  binding signal: 3480 fluorescence intensity (a.u.)

(list continues)

| Sequence | binding signal |
| --- | --- |
| ATAGTGATAGTACTAATGATTTTGCCACGCGTCGACCGCGCGGAGTCACCTAGTGCAG | 8290 fluorescence intensity (a.u.) |
| AATATAGTTGGGTTTTCACCAGACTCTGTTTTGGATATAGCGGAGTCACCTAGTGCAG | 22600 fluorescence intensity (a.u.) |
| TGAGATGGAACACGTCAGTCGATGGATCAGACAGCGACGTCGGAGTCACCTAGTGCAG | 4480 fluorescence intensity (a.u.) |
| TACAATTACAAATTCTTGAAATCTAAATGAAAATCTAGACCGGAGTCACCTAGTGCAG | 3400 fluorescence intensity (a.u.) |
| TGAGGTTGGTGTTGACGCTGTTGTCGACGAAGCTGGATGTCGGAGTCACCTAGTGCAG | 3620 fluorescence intensity (a.u.) |
| AATTGCCACGTAAGCGCCATGTCAGTGCCACGTCAAATTACGGAGTCACCTAGTGCAG | 33800 fluorescence intensity (a.u.) |
| ATCAACCACCACGGTGTCATCCTCCTCCTCCATGGTGTGTCGGAGTCACCTAGTGCAG | 4490 fluorescence intensity (a.u.) |
| AAACCAAAAGGCCAGCGAAGCCAACGCGTCACCTCCTCTCCGGAGTCACCTAGTGCAG | 7270 fluorescence intensity (a.u.) |
| GTGACACGTCCCAACGGTAGCCACCTCGATCTGTGCCGCCCGGAGTCACCTAGTGCAG | 5630 fluorescence intensity (a.u.) |
| CAACACCGCGCGCCACGACGCCCACTGCACCGGGTCAGCCCGGAGTCACCTAGTGCAG | 4050 fluorescence intensity (a.u.) |
| CCTCCTCCGAGGCTACTCTCTGCAGGGCGCTCGCTTACGTCGGAGTCACCTAGTGCAG | 17000 fluorescence intensity (a.u.) |
| TCAGGGAGTACTCGCTGCCGCGTGTCCCGGAGGGCCACTTCGGAGTCACCTAGTGCAG | 4820 fluorescence intensity (a.u.) |
| GGAAACAGTGTTGGGTACCGTACGTGCACGGCTACCAACACGGAGTCACCTAGTGCAG | 3510 fluorescence intensity (a.u.) |
| GCCGTTGTCGTCGCTGTCGTCGGAATAGCCTCCTTGGTGCCGGAGTCACCTAGTGCAG | 3500 fluorescence intensity (a.u.) |
| TTCTAGGTGAGTTATGAAATTAGTTCTTTCATTCGTGTCTCGGAGTCACCTAGTGCAG | 3730 fluorescence intensity (a.u.) |
| ATAAAATTGCCACATAAGCACCACGTCAATGCTATGTGGGCGGAGTCACCTAGTGCAG | 29700 fluorescence intensity (a.u.) |
| GTTTCGCAGGTGCACCGGACGTGTCCCGTGTATTTCCTGGCGGAGTCACCTAGTGCAG | 4170 fluorescence intensity (a.u.) |
| TTTCAATATTTTAATTTATTGTTCAACTTCTAATAGATGTCGGAGTCACCTAGTGCAG | 32800 fluorescence intensity (a.u.) |
| CAAGTACCAGCGGCGCAAGTGCAACGCGGACTGCCCGCTCCGGAGTCACCTAGTGCAG | 3870 fluorescence intensity (a.u.) |
| AAAGAGATTATGCGGATATGCCCTTGCAAACCGGGGCAGTCGGAGTCACCTAGTGCAG | 49900 fluorescence intensity (a.u.) |
| GGGCCTAATATCAAATAATTAGAAGGGGTAAAGCTTCGAACGGAGTCACCTAGTGCAG | 20800 fluorescence intensity (a.u.) |
